Source: the supplement of paper PMC4604168 (melanoma cell lines)
The list shows a part of the results. Repeats are few or missing, and single values can be far off.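 The apoptosis fraction was the count of cleaved-PARP antibody-stained nuclei relative to all DNA-stained nuclei, imaged in 1,536-well plates. Screening doses were set so most cells survived, and baseline and induced cleaved-PARP levels vary greatly across cell lines.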

Tests used:
Assay in all cases: cleaved PARP positive nuclei fraction relative to DMSO control; melanoma cells; higher = more apoptosis
Settings in all cases: library dose: low library concentration; 72 h
[1] = tested on: CBRC034 (line from a melanoma biopsy)
[2] = tested on: COLO792
[3] = tested on: COLO800
[4] = tested on: COLO829
[5] = tested on: G361
[6] = tested on: IPC-298
[7] = tested on: IST-MEL1
[8] = tested on: LB2518-MEL
[9] = tested on: LOXIMVI
[10] = tested on: MEL-HO

Compound | cleaved PARP positive nuclei fraction [1] [%] | cleaved PARP positive nuclei fraction [2] [%] | cleaved PARP positive nuclei fraction [3] [%] | cleaved PARP positive nuclei fraction [4] [%] | cleaved PARP positive nuclei fraction [5] [%] | cleaved PARP positive nuclei fraction [6] [%] | cleaved PARP positive nuclei fraction [7] [%] | cleaved PARP positive nuclei fraction [8] [%] | cleaved PARP positive nuclei fraction [9] [%] | cleaved PARP positive nuclei fraction [10] [%]
Cn1cc(C2=C(c3cn(C4CCN(Cc5ccccn5)CC4)c4ccccc34)C(=O)NC2=O)c2ccccc21 [Enzastaurin] + CNC(=O)c1cc(Oc2ccc(NC(=O)Nc3ccc(Cl)c(C(F)(F)F)c3)cc2)ccn1 [sorafenib] (first compound 0.8 µM, partner dose 0.4 µM) | 42.3 | 36.4 | 88.1 | 97.2 | 131 | 671 | 40.3 | 106 | 68.3 | 151
O=C(Nc1ccccc1)c1cc([N+](=O)[O-])ccc1Cl + Cc1cc(SCc2sc(-c3ccc(C(F)(F)F)c(F)c3)nc2C)ccc1OCC(=O)O [GW0742] (first compound 2 µM, partner dose 2 µM) | 190 | 96.1 | 104 | 121 | 239 | 215 | 177 | 186 | 43.7 | 
Cn1sc(=O)n(Cc2ccccc2)c1=O + C[As](C)SC[C@H](NC(=O)CC[C@H](N)C(=O)O)C(=O)NCC(=O)O [Darinaparsin] (first compound 0.4 µM, partner dose 0.4 µM) | 89.3 | 100 | 153 | 45.6 | 83.4 | 40.4 | 127 | 227 | 110 | 69.6
O=C(/C=C/c1cccnc1)NCCCCC1CCN(C(=O)c2ccccc2)CC1 + C[C@]12O[C@H](C[C@]1(O)CO)n1c3ccccc3c3c4c(c5c6ccccc6n2c5c31)CNC4=O [Lestaurtinib] (first compound 0.01 µM, partner dose 0.004 µM) | 2090 | 320 | 219 | 285 | 5310 | 414 | 266 | 593 | 34.6 | 143
Cn1cc(C2=C(c3cn(C4CCN(Cc5ccccn5)CC4)c4ccccc34)C(=O)NC2=O)c2ccccc21 [Enzastaurin] + CN(c1ncccc1CNc1nc(Nc2ccc3c(c2)CC(=O)N3)ncc1C(F)(F)F)S(C)(=O)=O [PF562271] (first compound 0.8 µM, partner dose 0.08 µM) | 62.6 | 46 | 71.4 | 164 | 143 | 41.5 | 60.9 | 54.6 | 93.6 | 105
CO[C@H]1C[C@@H]2CC[C@@H](C)[C@@](O)(O2)C(=O)C(=O)N2CCCC[C@H]2C(=O)O[C@H]([C@H](C)C[C@@H]2CC[C@@H](OCCO)[C@H](OC)C2)CC(=O)[C@H](C)/C=C(\C)[C@@H](O)[C@@H](OC)C(=O)[C@H](C)C[C@H](C)/C=C/C=C/C=C/1C [everolimus] + C[As](C)SC[C@H](NC(=O)CC[C@H](N)C(=O)O)C(=O)NCC(=O)O [Darinaparsin] (first compound 0.02 µM, partner dose 0.4 µM) | 79.1 | 123 | 93.9 | 105 | 158 | 39.9 | 61.2 | 141 | 97.4 | 61.7
C[C@]1(O)C[C@@H](c2nc(-c3ccc4ccc(-c5ccccc5)nc4c3)c3c(N)nccn32)C1 + C[As](C)SC[C@H](NC(=O)CC[C@H](N)C(=O)O)C(=O)NCC(=O)O [Darinaparsin] (first compound 0.4 µM, partner dose 0.4 µM) | 65.9 | 62.2 | 109 | 87.9 | 68.3 | 187 | 83.9 | 59.1 | 63.5 | 83.2
Cn1cc(C2=C(c3cn(C4CCN(Cc5ccccn5)CC4)c4ccccc34)C(=O)NC2=O)c2ccccc21 [Enzastaurin] + CN1CCN(c2ccc3nc(-c4c(N)c5c(F)cccc5[nH]c4=O)[nH]c3c2)CC1 [Dovitinib] (first compound 0.8 µM, partner dose 0.1 µM) | 83.3 | 61.1 | 95.1 | 76.7 | 99.4 | 118 | 157 | 57.2 | 173 | 113
CS(=O)(=O)c1ccc(C(=O)Nc2ccc(Cl)c(-c3ccccn3)c2)c(Cl)c1 [vismodegib] + C[As](C)SC[C@H](NC(=O)CC[C@H](N)C(=O)O)C(=O)NCC(=O)O [Darinaparsin] (first compound 1 µM, partner dose 0.4 µM) | 77.5 | 133 | 46.7 | 77.4 | 67.5 | 131 | 64.1 | 111 | 73.3 | 31.7
C[C@]12O[C@H](C[C@]1(O)CO)n1c3ccccc3c3c4c(c5c6ccccc6n2c5c31)CNC4=O [Lestaurtinib] + Nc1ncn([C@H]2C[C@H](O)[C@@H](CO)O2)c(=O)n1 [decitabine] (first compound 0.004 µM, partner dose 0.1 µM) | 148 | 72.6 | 154 | 40.2 | 202 | 41.5 | 150 | 391 | 131 | 102
C[As](C)SC[C@H](NC(=O)CC[C@H](N)C(=O)O)C(=O)NCC(=O)O [Darinaparsin] + Cn1nnc2c(C(N)=O)ncn2c1=O [temozolomide] (first compound 0.4 µM, partner dose 2 µM) | 49.8 | 124 | 59 | 81.6 | 74.1 | 258 | 258 | 116 | 192 | 57
C[C@]12O[C@H](C[C@]1(O)CO)n1c3ccccc3c3c4c(c5c6ccccc6n2c5c31)CNC4=O [Lestaurtinib] + C[C@]1(O)C[C@@H](c2nc(-c3ccc4ccc(-c5ccccc5)nc4c3)c3c(N)nccn32)C1 [OSI906] (first compound 0.004 µM, partner dose 0.4 µM) | 40 | 76.5 | 83.7 | 186 | 81.5 | 51 | 132 | 135 | 138 | 131
CS(=O)(=O)c1ccc(C(=O)Nc2ccc(Cl)c(-c3ccccn3)c2)c(Cl)c1 [vismodegib] + N.N.[Cl][Pt][Cl] [cisplatin] (first compound 1 µM, partner dose 1.6 µM) | 121 | 57.5 | 39.9 | 73.3 | 59.8 | 166 | 64.8 | 198 | 110 | 132
C[As](C)SC[C@H](NC(=O)CC[C@H](N)C(=O)O)C(=O)NCC(=O)O [Darinaparsin] + Nc1cccc2c1CN(C1CCC(=O)NC1=O)C2=O [lenalidomide] (first compound 0.4 µM, partner dose 1 µM) | 138 | 58.7 | 123 | 126 | 58.9 | 170 | 123 | 111 | 74.7 | 80.8
C[C@]12O[C@H](C[C@]1(O)CO)n1c3ccccc3c3c4c(c5c6ccccc6n2c5c31)CNC4=O [Lestaurtinib] + C#Cc1cccc(Nc2ncnc3cc(OCCOC)c(OCCOC)cc23)c1 [erlotinib] (first compound 0.004 µM, partner dose 0.8 µM) | 70.2 | 96.2 | 53.7 | 107 | 67.8 | 54.1 | 63.1 | 133 | 37.8 | 106
Cn1cc(C2=C(c3cn(C4CCN(Cc5ccccn5)CC4)c4ccccc34)C(=O)NC2=O)c2ccccc21 [Enzastaurin] + C=CCNC1=C2C[C@@H](C)C[C@H](OC)[C@H](O)[C@@H](C)/C=C(\C)[C@H](OC(N)=O)[C@@H](OC)/C=C\C=C(/C)C(=O)NC(=CC1=O)C2=O [Tanespimycin] (first compound 0.8 µM, partner dose 0.002 µM) | 66.9 | 36.9 | 55.4 | 128 | 68.1 | 43.9 | 52.8 | 121 | 50.9 | 91.9
Cn1cc(C2=C(c3cn(C4CCN(Cc5ccccn5)CC4)c4ccccc34)C(=O)NC2=O)c2ccccc21 [Enzastaurin] + Cn1c(=O)n(-c2ccc(C(C)(C)C#N)cc2)c2c3cc(-c4cnc5ccccc5c4)ccc3ncc21 [NVP-BEZ235] (first compound 0.8 µM, partner dose 0.004 µM) | 72.7 | 104 | 109 | 123 | 59.7 | 26.4 | 172 | 153 | 192 | 38.3
C[C@]12O[C@H](C[C@]1(O)CO)n1c3ccccc3c3c4c(c5c6ccccc6n2c5c31)CNC4=O [Lestaurtinib] + CC(=O)c1c(C)c2cnc(Nc3ccc(N4CCNCC4)cn3)nc2n(C2CCCC2)c1=O [palbociclib] (first compound 0.004 µM, partner dose 0.04 µM) | 200 | 121 | 86.4 | 172 | 67.6 | 49.1 | 132 | 182 | 136 | 87.2
Cn1cc(C2=C(c3cn(C4CCN(Cc5ccccn5)CC4)c4ccccc34)C(=O)NC2=O)c2ccccc21 [Enzastaurin] + C#Cc1cccc(Nc2ncnc3cc(OCCOC)c(OCCOC)cc23)c1 [erlotinib] (first compound 0.8 µM, partner dose 0.8 µM) | 110 | 74.5 | 112 | 50.3 | 66.2 | 112 | 128 | 68.1 | 85.7 | 54.6
Cc1cn(-c2cc(NC(=O)c3ccc(C)c(Nc4nccc(-c5cccnc5)n4)c3)cc(C(F)(F)F)c2)cn1 [nilotinib] + Cn1cc(C2=C(c3cn(C4CCN(Cc5ccccn5)CC4)c4ccccc34)C(=O)NC2=O)c2ccccc21 [Enzastaurin] (first compound 0.2 µM, partner dose 0.8 µM) | 69.4 | 53.2 | 110 | 158 | 89 | 179 | 248 | 107 | 237 | 100
Cn1cnc2c(F)c(Nc3ccc(Br)cc3Cl)c(C(=O)NOCCO)cc21 [selumetinib] + Cn1cc(C2=C(c3cn(C4CCN(Cc5ccccn5)CC4)c4ccccc34)C(=O)NC2=O)c2ccccc21 [Enzastaurin] (first compound 0.015 µM, partner dose 0.8 µM) | 37.7 | 119 | 96.4 | 123 | 121 | 201 | 64.7 | 177 | 178 | 56

Random excerpt: two entries already listed
Compound | cleaved PARP positive nuclei fraction [1] [%] | cleaved PARP positive nuclei fraction [2] [%] | cleaved PARP positive nuclei fraction [3] [%] | cleaved PARP positive nuclei fraction [4] [%] | cleaved PARP positive nuclei fraction [5] [%] | cleaved PARP positive nuclei fraction [6] [%] | cleaved PARP positive nuclei fraction [7] [%] | cleaved PARP positive nuclei fraction [8] [%] | cleaved PARP positive nuclei fraction [9] [%] | cleaved PARP positive nuclei fraction [10] [%]
C[As](C)SC[C@H](NC(=O)CC[C@H](N)C(=O)O)C(=O)NCC(=O)O [Darinaparsin] + Cn1nnc2c(C(N)=O)ncn2c1=O [temozolomide] (first compound 0.4 µM, partner dose 2 µM) | 49.8 | 124 | 59 | 81.6 | 74.1 | 258 | 258 | 116 | 192 | 57
Cn1cnc2c(F)c(Nc3ccc(Br)cc3Cl)c(C(=O)NOCCO)cc21 [selumetinib] + Cn1cc(C2=C(c3cn(C4CCN(Cc5ccccn5)CC4)c4ccccc34)C(=O)NC2=O)c2ccccc21 [Enzastaurin] (first compound 0.015 µM, partner dose 0.8 µM) | 37.7 | 119 | 96.4 | 123 | 121 | 201 | 64.7 | 177 | 178 | 56
